Our source for the Latency values is patent US5460942A, “The catalytic moiety of the glucose-6-phosphatase system: the gene and protein and related mutations” (The United States of America as represented by the …, priority 1993, dated 1995).

A short description of the series: Latency: mannose-6-P phosphohydrolysis in intact versus detergent-disrupted microsomes. It is filed as biochemical.

B1: pSVLmG-6-Pase-Transfacted COS: recombinant murine G-6-Pase in microsomes of COS-1 cells transfected with pSVLmG-6-Pase (protein, UniProt P35576 1-357, looked up)
Glucose-6-phosphatase …: MEEGMNILHDFGIQSTRYLQVNYQDSQDWFILVSVIADLRNAFYVLFPIWFHLKETVGINLLWVAVVGDWFNLVFKWILFGQRPYWWVLDTDYYSNSSVPIIKQFPVTCETGPGSPSGHAMGAAGVYYVMVTSTLAIFRGKKKPTYGFRCLNVILWLGFWAVQLNVCLSRIYLAAHFPHQVVAGVLSGIAVAETFSHIRGIYNASLRKYCLITIFLFGFALGFYLLLKGLGVDLLWTLEKAKRWCERPEWVHLDTTPFASLFKNLGTLLGLGLALNSSMYRKSCKGELSKLLPFRFACIVASLVLLHLFDSLKPPSQVELIFYILSFCKSATVPFASVSLIPYCLARILGQTHKKSL
modifications: in COS-1 microsomes
notes: recombinant murine G-6-Pase in microsomes of COS-1 cells transfected with pSVLmG-6-Pase
B1: the Latency (mannose-6-P (5 mM) hydrolysis, (1-intact/disrupted) × 100, murine study) was determined as 50%.

B2: phG-6-Pase-1-COS: recombinant human G-6-Pase in microsomes of COS-1 cells transiently transfected with phG-6-Pase-1 cDNA (protein, UniProt P35575 1-357, looked up)
Glucose-6-phosphatase …: MEEGMNVLHDFGIQSTHYLQVNYQDSQDWFILVSVIADLRNAFYVLFPIWFHLQEAVGIKLLWVAVIGDWLNLVFKWILFGQRPYWWVLDTDYYSNTSVPLIKQFPVTCETGPGSPSGHAMGTAGVYYVMVTSTLSIFQGKIKPTYRFRCLNVILWLGFWAVQLNVCLSRIYLAAHFPHQVVAGVLSGIAVAETFSHIHSIYNASLKKYFLITFFLFSFAIGFYLLLKGLGVDLLWTLEKAQRWCEQPEWVHIDTTPFASLLKNLGTLFGLGLALNSSMYRESCKGKLSKWLPFRLSSIVASLVLLHVFDSLKPPSQVELVFYVLSFCKSAVVPLASVSVIPYCLAQVLGQPHKKSL
modifications: in COS-1 microsomes
notes: recombinant human G-6-Pase in microsomes of COS-1 cells transiently transfected with phG-6-Pase-1 cDNA
Regarding B2, the Latency (mannose-6-P phosphohydrolysis, (1-I/D) × 100, human study) was determined as 28.2% and the Latency (mannose-6-P phosphohydrolysis, (1-I/D) × 100, human study, listed as phG-6-Pase-1-transfected COS-1 cells) is listed as 28%.
